Measured values reported in PMC4782060.
Numbering of substitutions follows the chain as printed. These are yes or no findings as the source states them, for the method shown. For some of these results: In cells and extracts the contact can be indirect. Some entries that bind do so weakly or less than the wild type. For some of these results: Tags and fused reporters may be left off the sequences shown. Values belong to the binder of their own block, whether it stands above or below them.

The chains behind the UniProt entries cited, without tags or fusion partners. Residues count along the entry.
UniProt P08670, residues 102-138: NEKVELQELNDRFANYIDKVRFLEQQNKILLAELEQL

How the values were obtained:
[1] = biological target: wild-type human envoplakin plakin repeat domain (PRD), residues Asp1822-Ala2014 (human) (UniProt Q92817); experiment: SAXS; envoplakin PRD alone; 1-5.5 mg ml^-1 (5.5 mg ml^-1 data set analysed) in 100 mM NaCl, 20 mM sodium phosphate, pH 7.2, room temperature; both purified
[2] = biological target: peptide consisting of vimentin residues 102-138 (human) (UniProt P08670); experiment: SPR; envoplakin PRD and the vimentin 102-138 peptide, in the presence of salt; both purified
[3] = biological target: wild-type human envoplakin plakin repeat domain (PRD), residues Asp1822-Ala2014 (human) (UniProt Q92817); experiment: condition: 21, 44 and 65 μM (equilibrium); 46 μM (velocity); AUC; envoplakin PRD alone; sedimentation equilibrium at 21, 44 and 65 μM and sedimentation velocity at 46 μM; 100 mM NaCl, 20 mM sodium phosphate, pH 7.4, 20 °C; both purified
[4] = biological target: T1, human envoplakin residues 1542-2014 with a C-terminal FLAG tag, R1914E (human) (UniProt Q92817); experiment: co-IP; called pull-down assay by the paper: HeLa cells co-transfected with FLAG-tagged envoplakin and HA-tagged periplakin constructs, lysed 48 h later in PBS with 1% Triton X-100; Flag-agarose beads, 45 min at 4 °C; blots with anti-Flag and anti-HA
T1 sequence: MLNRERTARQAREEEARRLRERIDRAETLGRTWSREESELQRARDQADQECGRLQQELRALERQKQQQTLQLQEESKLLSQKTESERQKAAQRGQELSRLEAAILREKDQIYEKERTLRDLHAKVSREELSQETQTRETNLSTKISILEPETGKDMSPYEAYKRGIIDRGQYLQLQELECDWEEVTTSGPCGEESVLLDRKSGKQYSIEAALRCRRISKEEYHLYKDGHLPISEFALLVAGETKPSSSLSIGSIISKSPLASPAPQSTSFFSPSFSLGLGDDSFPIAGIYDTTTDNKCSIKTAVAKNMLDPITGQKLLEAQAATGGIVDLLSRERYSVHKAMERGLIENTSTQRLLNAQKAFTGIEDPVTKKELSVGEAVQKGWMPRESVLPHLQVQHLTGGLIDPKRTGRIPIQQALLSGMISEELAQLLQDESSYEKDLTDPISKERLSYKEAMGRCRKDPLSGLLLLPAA

[5] = biological target: T2, human envoplakin residues 1542-2014 with a C-terminal FLAG tag, K1847E (human) (UniProt Q92817); experiment: as above
T2 sequence: T1 sequence with K306E, E373R

[6] = biological target: T3, human envoplakin residues 1542-2014 with a C-terminal FLAG tag, K1901E (human) (UniProt Q92817); experiment: as above
T3 sequence: T1 sequence with K360E, E373R

[7] = biological target: T4, human envoplakin residues 1542-2014 with a C-terminal FLAG tag, K2002E (human) (UniProt Q92817); experiment: as above
T4 sequence: T1 sequence with E373R, K461E

binding [1]: no binding (tested: 5.5 mg ml^-1)
binding [2]: no binding
binding [3]: no binding
B1: wild-type human envoplakin plakin repeat domain (PRD), residues Asp1822-Ala2014 (domain or fragment, UniProt Q92817 1822-2014)
chain: DDSFPIAGIYDTTTDNKCSIKTAVAKNMLDPITGQKLLEAQAATGGIVDLLSRERYSVHKAMERGLIENTSTQRLLNAQKAFTGIEDPVTKKRLSVGEAVQKGWMPRESVLPHLQVQHLTGGLIDPKRTGRIPIQQALLSGMISEELAQLLQDESSYEKDLTDPISKERLSYKEAMGRCRKDPLSGLLLLPAA

binding [4]: binds
binding [5]: binds
binding [6]: binds
binding [7]: binds
B2: human periplakin residues 1588-1756 with a C-terminal HA tag (domain or fragment, UniProt O60437 1588-1756)
chain: MAATETRDLRNMTVADSGTNHDSRLWSLERELDDLKRLSKDKDLEIDELQKRLGSVAVKREQRENHLRRSIVVIHPDTGRELSPEEAHRAGLIDWNMFVKLRSQECDWEEISVKGPNGESSVIHDRKSGKKFSIEEALQSGRLTPAQYDRYVNKDMSIQELAVLVSGQK
